Data taken from the supplement of paper PMC4604168 (melanoma cell lines).
The list shows a part of the results. Single values are uncertain, as repeats are few or missing.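 Imaging used 1,536-well plates; nuclei positive for cleaved PARP by antibody were divided by total DNA-stained nuclei to yield the apoptosis fraction. Doses for screening kept most cells viable, and cell lines differ markedly in resting and induced cleaved-PARP levels.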

Legend:
Test in all cases: cleaved PARP positive nuclei fraction relative to DMSO control; melanoma cells; higher = more apoptosis
Details in all cases: library dose: low library concentration; 72 h
MZ2-MEL = test system: MZ2-MEL
MeWo = test system: MeWo
RPMI7951 = test system: RPMI7951
RVH-421 = test system: RVH-421
SkMel28 = test system: SkMel28
SkMel2 = test system: SkMel2
SkMel30 = test system: SkMel30
UACC62 = test system: UACC62
WM115 = test system: WM115
WM1716 = test system: WM1716
WM1745 = test system: WM1745
WM3526 = test system: WM3526
WM3619 = test system: WM3619
WM451Lu = test system: WM451Lu

SMILES | cleaved PARP positive nuclei fraction (MZ2-MEL) [%] | cleaved PARP positive nuclei fraction (MeWo) [%] | cleaved PARP positive nuclei fraction (RPMI7951) [%] | cleaved PARP positive nuclei fraction (RVH-421) [%] | cleaved PARP positive nuclei fraction (SkMel28) [%] | cleaved PARP positive nuclei fraction (SkMel2) [%] | cleaved PARP positive nuclei fraction (SkMel30) [%] | cleaved PARP positive nuclei fraction (UACC62) [%] | cleaved PARP positive nuclei fraction (WM115) [%] | cleaved PARP positive nuclei fraction (WM1716) [%] | cleaved PARP positive nuclei fraction (WM1745) [%] | cleaved PARP positive nuclei fraction (WM3526) [%] | cleaved PARP positive nuclei fraction (WM3619) [%] | cleaved PARP positive nuclei fraction (WM451Lu) [%]
O=C(O)[C@@H]1[O][Sb](=[O])([O][Sb]2(=[O])[O][C@H]([C@H](O)CO)[C@H](O)[C@H](C(=O)O)[O]2)[O][C@H]([C@H](O)CO)[C@@H]1O (some centres not stated) [stibogluconate] + CC(=O)c1c(C)c2cnc(Nc3ccc(N4CCNCC4)cn3)nc2n(C2CCCC2)c1=O [palbociclib] (first compound 2 µM, partner dose 0.04 µM) | 56.5 | 27.3 | 92.5 | 115 | 165 | 119 | 87 | 214 | 103 | 99.3 | 155 | 408 | 123 | 112
CNC(=O)c1cc(Oc2ccc(NC(=O)Nc3ccc(Cl)c(C(F)(F)F)c3)cc2)ccn1 [sorafenib] + OCc1c[nH]c2ccccc12 [Indole-3-carbinol] (first compound 0.4 µM, partner dose 0.8 µM) | 116 | 27.9 | 77.5 | 138 | 80.6 | 124 | 17.6 | 57.6 | 133 | 57.8 | 95.4 | 99 | 105 | 23.4
C[C@@H](Oc1cc(-c2cnn(C3CCNCC3)c2)cnc1N)c1c(Cl)ccc(F)c1Cl [Crizotinib] + OCc1c[nH]c2ccccc12 [Indole-3-carbinol] (first compound 0.2 µM, partner dose 0.8 µM) | 182 | 91.4 | 94.6 | 79.6 | 178 | 39.5 | 64.6 | 82.7 | 49.2 | 121 | 98.2 | 71.3 | 78.7 | 158
Cc1cc(Nc2cc(N3CCN(C)CC3)nc(/C=C/c3ccccc3)n2)n[nH]1 + NC1(c2ccc(-c3nc4ccn5c(=O)[nH]nc5c4cc3-c3ccccc3)cc2)CCC1 [MK2206] (first compound 0.04 µM, partner dose 0.4 µM) | 74.7 | 57.1 | 164 | 145 | 154 | 55.5 | 58.3 | 158 | 139 | 46.9 | 120 | 28.5 | 105 | 149
Nc1ccn([C@@H]2O[C@H](CO)[C@@H](O)C2(F)F)c(=O)n1 [gemcitabine] + Cn1c(Nc2ccc(C(F)(F)F)cc2)nc2cc(Oc3ccnc(-c4ncc(C(F)(F)F)[nH]4)c3)ccc21 [CHIR265] (first compound 0.0004 µM, partner dose 0.08 µM) | 104 | 169 | 313 | 118 | 184 | 124 | 215 | 288 | 299 | 194 | 133 | 57.8 | 296 | 151
CC(C)C[C@H](NC(=O)[C@H](Cc1ccccc1)NC(=O)c1cnccn1)B(O)O [Bortezomib] + CC(=O)c1c(C)c2cnc(Nc3ccc(N4CCNCC4)cn3)nc2n(C2CCCC2)c1=O [palbociclib] (first compound 0.001 µM, partner dose 0.04 µM) | 291 | 71.8 | 195 | 512 | 95 | 16.9 | 996 | 270 | 121 | 476 | 158 | 84.4 | 534 | 125
CC(C)C[C@H](NC(=O)[C@H](Cc1ccccc1)NC(=O)c1cnccn1)B(O)O [Bortezomib] + C=CCNC1=C2C[C@@H](C)C[C@H](OC)[C@H](O)[C@@H](C)/C=C(\C)[C@H](OC(N)=O)[C@@H](OC)/C=C\C=C(/C)C(=O)NC(=CC1=O)C2=O [Tanespimycin] (first compound 0.001 µM, partner dose 0.002 µM) | 142 | 61.9 | 116 | 153 | 76.5 | 72.6 | 157 | 42.4 | 70.8 | 125 | 169 | 55.8 | 476 | 80.8
C[C@@H](Oc1cc(-c2cnn(C3CCNCC3)c2)cnc1N)c1c(Cl)ccc(F)c1Cl [Crizotinib] + O=C(O)c1ccc2c(c1)nc(Nc1cccc(Cl)c1)c1ccncc12 [CX4945] (first compound 0.2 µM, partner dose 0.4 µM) | 190 | 111 | 130 | 40.5 | 183 | 117 | 66.6 | 54.2 | 270 | 70.6 | 106 | 148 | 161 | 73.8
CCCS(=O)(=O)Nc1ccc(F)c(C(=O)c2c[nH]c3ncc(Cl)cc23)c1F + C=CCNC1=C2C[C@@H](C)C[C@H](OC)[C@H](O)[C@@H](C)/C=C(\C)[C@H](OC(N)=O)[C@@H](OC)/C=C\C=C(/C)C(=O)NC(=CC1=O)C2=O [Tanespimycin] (first compound 0.08 µM, partner dose 0.002 µM) | 106 | 41 | 235 | 109 | 231 | 384 | 51.7 | 50.9 | 168 | 224 | 95.3 | 117 | 84.1 | 23.9
Cn1c(=O)n(-c2ccc(C(C)(C)C#N)cc2)c2c3cc(-c4cnc5ccccc5c4)ccc3ncc21 + Clc1ccc(Nc2nnc(Cc3ccncc3)c3ccccc23)cc1 [vatalanib] (first compound 0.004 µM, partner dose 2 µM) | 111 | 158 | 42.9 | 208 | 87.2 | 83.5 | 142 | 65.4 | 55.8 | 107 | 128 | 83.7 | 125 | 293
CCCS(=O)(=O)Nc1ccc(F)c(C(=O)c2c[nH]c3ncc(Cl)cc23)c1F + Clc1ccc(Nc2nnc(Cc3ccncc3)c3ccccc23)cc1 [vatalanib] (first compound 0.08 µM, partner dose 2 µM) | 79.7 | 34.6 | 311 | 187 | 77.2 | 67.1 | 57.6 | 371 | 34.9 | 29.1 | 122 | 49.8 | 120 | 169
CNC(=O)c1cc(Oc2ccc(NC(=O)Nc3ccc(Cl)c(C(F)(F)F)c3)cc2)ccn1 [sorafenib] + Cn1c(Nc2ccc(C(F)(F)F)cc2)nc2cc(Oc3ccnc(-c4ncc(C(F)(F)F)[nH]4)c3)ccc21 [CHIR265] (first compound 0.4 µM, partner dose 0.08 µM) | 42.2 | 133 | 151 | 78 | 47.5 | 216 | 39.9 | 138 | 651 | 39.5 | 134 | 69.5 | 109 | 43.6
O=C(O)[C@@H]1[O][Sb](=[O])([O][Sb]2(=[O])[O][C@H]([C@H](O)CO)[C@H](O)[C@H](C(=O)O)[O]2)[O][C@H]([C@H](O)CO)[C@@H]1O (some centres not stated) [stibogluconate] + C#Cc1cccc(Nc2ncnc3cc(OCCOC)c(OCCOC)cc23)c1 [erlotinib] (first compound 2 µM, partner dose 0.8 µM) | 54.9 | 27.5 | 50 | 94.5 | 65.7 | 162 | 72 | 176 | 71.5 | 42.9 | 101 | 77.9 | 101 | 279
C[C@@H](Oc1cc(-c2cnn(C3CCNCC3)c2)cnc1N)c1c(Cl)ccc(F)c1Cl [Crizotinib] + CCCS(=O)(=O)Nc1ccc(F)c(C(=O)c2c[nH]c3ncc(Cl)cc23)c1F [PLX4720] (first compound 0.2 µM, partner dose 0.08 µM) | 103 | 98.2 | 125 | 160 | 98.7 | 104 | 81.7 | 107 | 63.1 | 58.4 | 103 | 60.7 | 85.5 | 45.1
CN1CCN(c2ccc3nc(-c4c(N)c5c(F)cccc5[nH]c4=O)[nH]c3c2)CC1 [Dovitinib] + Cn1c(Nc2ccc(C(F)(F)F)cc2)nc2cc(Oc3ccnc(-c4ncc(C(F)(F)F)[nH]4)c3)ccc21 [CHIR265] (first compound 0.1 µM, partner dose 0.08 µM) | 319 | 125 | 103 | 451 | 91.2 | 70.5 | 121 | 165 | 441 | 128 | 155 | 84.4 | 92.3 | 54
CS(=O)(=O)CCNCc1ccc(-c2ccc3ncnc(Nc4ccc(OCc5cccc(F)c5)c(Cl)c4)c3c2)o1 [lapatinib] + Cn1nnc2c(C(N)=O)ncn2c1=O [temozolomide] (first compound 0.8 µM, partner dose 2 µM) | 53.4 | 452 | 80.7 | 99.2 | 86.3 | 83.2 | 98.6 | 242 | 133 | 590 | 97 | 88.5 | 80.1 | 88.9
CS(=O)(=O)CCNCc1ccc(-c2ccc3ncnc(Nc4ccc(OCc5cccc(F)c5)c(Cl)c4)c3c2)o1 [lapatinib] + C#Cc1cccc(Nc2ncnc3cc(OCCOC)c(OCCOC)cc23)c1 [erlotinib] (first compound 0.8 µM, partner dose 0.8 µM) | 156 | 85.7 | 52.5 | 41.4 | 48.2 | 160 | 67.9 | 35.5 | 74.5 | 104 | 94 | 110 | 97.5 | 54.1
Nc1nc(F)nc2c1ncn2[C@@H]1O[C@H](CO)[C@@H](O)[C@@H]1O [fludarabine] + Nc1cccc2c1CN(C1CCC(=O)NC1=O)C2=O [lenalidomide] (first compound 0.2 µM, partner dose 1 µM) | 44.3 | 1440 | 189 | 61.6 | 115 | 434 | 1440 | 59.7 | 172 | 297 | 92.8 | 1800 | 77.7 | 237

A section taken from the entries so far:
SMILES | cleaved PARP positive nuclei fraction (MZ2-MEL) [%] | cleaved PARP positive nuclei fraction (MeWo) [%] | cleaved PARP positive nuclei fraction (RPMI7951) [%] | cleaved PARP positive nuclei fraction (RVH-421) [%] | cleaved PARP positive nuclei fraction (SkMel28) [%] | cleaved PARP positive nuclei fraction (SkMel2) [%] | cleaved PARP positive nuclei fraction (SkMel30) [%] | cleaved PARP positive nuclei fraction (UACC62) [%] | cleaved PARP positive nuclei fraction (WM115) [%] | cleaved PARP positive nuclei fraction (WM1716) [%] | cleaved PARP positive nuclei fraction (WM1745) [%] | cleaved PARP positive nuclei fraction (WM3526) [%] | cleaved PARP positive nuclei fraction (WM3619) [%] | cleaved PARP positive nuclei fraction (WM451Lu) [%]
CNC(=O)c1cc(Oc2ccc(NC(=O)Nc3ccc(Cl)c(C(F)(F)F)c3)cc2)ccn1 [sorafenib] + OCc1c[nH]c2ccccc12 [Indole-3-carbinol] (first compound 0.4 µM, partner dose 0.8 µM) | 116 | 27.9 | 77.5 | 138 | 80.6 | 124 | 17.6 | 57.6 | 133 | 57.8 | 95.4 | 99 | 105 | 23.4
C[C@@H](Oc1cc(-c2cnn(C3CCNCC3)c2)cnc1N)c1c(Cl)ccc(F)c1Cl [Crizotinib] + OCc1c[nH]c2ccccc12 [Indole-3-carbinol] (first compound 0.2 µM, partner dose 0.8 µM) | 182 | 91.4 | 94.6 | 79.6 | 178 | 39.5 | 64.6 | 82.7 | 49.2 | 121 | 98.2 | 71.3 | 78.7 | 158
